Results published in PubChem BioAssay AID720504 (National Center for Advancing Translational Sciences (NCATS), 2013).
Values joined by “and” are separate entries in the source; they are usually repeats but may differ in a detail not shown here. Equal entries are not always repeated. Among all 360,000 compounds or so, about 10,000 (2.8%) were called active. Inconclusive means that the source gave no clear call. Such entries were picked first, then a sample of the others. Calls follow the shape of the dose curve; as a rule, active = well fitted inhibition curve with a large enough effect; inconclusive = small, poorly fitted or top-dose-only effect; inactive = flat fitted curve, though single readings scatter. Potencies of inconclusive entries are doubtful fits and often do not repeat.

The chains behind the UniProt entries cited, without tags or fusion partners.
UniProt P53350, whole entry, looked up: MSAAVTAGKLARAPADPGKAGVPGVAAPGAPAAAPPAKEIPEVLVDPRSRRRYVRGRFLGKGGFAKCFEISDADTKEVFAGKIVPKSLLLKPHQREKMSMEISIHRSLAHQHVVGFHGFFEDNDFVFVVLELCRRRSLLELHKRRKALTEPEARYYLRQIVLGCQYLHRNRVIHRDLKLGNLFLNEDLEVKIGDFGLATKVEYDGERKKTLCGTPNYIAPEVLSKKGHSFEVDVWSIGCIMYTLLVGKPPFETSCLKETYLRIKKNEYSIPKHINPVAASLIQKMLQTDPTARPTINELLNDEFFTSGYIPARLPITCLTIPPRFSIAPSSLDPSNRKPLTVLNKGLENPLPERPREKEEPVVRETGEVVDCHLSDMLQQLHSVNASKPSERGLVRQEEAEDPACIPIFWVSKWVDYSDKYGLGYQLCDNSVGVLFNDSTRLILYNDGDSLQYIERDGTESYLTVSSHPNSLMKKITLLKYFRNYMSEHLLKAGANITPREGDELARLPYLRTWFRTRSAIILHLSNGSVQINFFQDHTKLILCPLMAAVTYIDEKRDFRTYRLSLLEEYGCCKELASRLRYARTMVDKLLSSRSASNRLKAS

The compounds below were run against Serine/threonine-protein kinase PLK1 (Homo sapiens) (UniProt P53350) (assay: qHTS for Inhibitors of PLK1-PDB (polo-like kinase 1 - polo-box domain): Primary Screen). Settings: Plk1 PBD binding of FITC phosphopeptide, fluorescence polarization.
% is scaled to controls: 0 for no effect and ±100 for the full control effect; potency is read from the fitted curve at half-maximal effect.
Also: nearly all actives have a fitted effect of over 65% in size.
For max response, negative = inhibition in this document: series mostly up to about 57 µM.

Compound	Potency	max response, negative = inhibition
Cc1cccc(CN2C(=O)c3ccccc3Sc3ccc(C(=O)O)cc32)c1	inconclusive: 21.2 µM [inhibitor, partial curve]	
COc1cccc(N2CCN(c3ccc4nnc(CCC(=O)Nc5cccc(C(C)=O)c5)n4n3)CC2)c1	active: 21.2 µM	
CC1CCCCN1C(=O)CSc1nc(N)nc(N)n1 (stereo not drawn)		inconclusive: -30% [inhibitor]
O=c1cnnc(N/N=C/c2ccccn2)[nH]1	active: 21.2 µM	
Cc1nc(C)c(C(=O)N(c2ccc(F)cc2)C(C(=O)NCC2CCCO2)c2ccccc2)s1 (stereo not drawn)	inconclusive: 29.9 µM [inhibitor, single point]	
O=S(=O)(Nc1c(S(=O)(=O)c2ccccc2)c2nc3ccccc3nc2n1C1CCCCC1)c1ccccc1	active: 6.7 µM and active: 4.23 µM	
C/C(=N\NC(=O)c1ccc(CN2CCOCC2)cc1)c1cccc([N+](=O)[O-])c1	inconclusive: 29.9 µM [inhibitor, partial curve]	
CN(C)c1ccc(C=C2SC(=S)NC2=O)cc1		inactive: 72.4%
O=C(O)c1cc(=S)nc[nH]1	inconclusive: 21.2 µM [inhibitor, single point]	
O=C(CSc1nncs1)Nc1ccc2[nH]c(=O)[nH]c2c1		inactive: 0.884%
Cc1ccc(-n2c(C)cc3c2CC(C)(C)CC3=O)cc1C		inactive: -9.25%
CC(=O)Nc1ccc(S(=O)(=O)Nn2cnnc2)cc1		inactive: -3.06%
Cc1c(C(c2ccc(F)cc2)c2c(C)n(C)n(-c3ccccc3)c2=O)c(=O)n(-c2ccccc2)n1C	inconclusive: 21.2 µM [inhibitor, single point]	
CC1CN(c2nc(N(C)c3ccccc3)nc(N)c2[N+](=O)[O-])CC(C)O1 (stereo not drawn)		inactive: -7.66%
CCc1ccc(-c2csc3[n+]2CCN3C(C)=O)cc1	inconclusive: 23.8 µM [inhibitor, partial curve]	
O=[N+]([O-])c1ccc(Sc2ccc(Cl)c(Cl)c2)nc1		inactive: -4.55%
COc1ccc(NC(=S)NC(=O)c2cc3ccccc3o2)c(OC)c1		inactive: 1.58%
O=C(c1ccc2ccccc2c1)N1CCN(c2ccc(C(F)(F)F)cn2)CC1		inactive: -0.231%
Cc1cccc(N2CCN(S(=O)(=O)c3ccc(Cl)nc3)CC2C)c1 (stereo not drawn)		inactive: 5.83%
O=C(CCS(=O)(=O)c1ccc(Br)cc1)N1CCN(c2ccc(F)cc2)CC1		inactive: 6.78%
O=C(CSc1nnc2sc3ccccc3n12)c1ccco1	inconclusive: 23.8 µM [inhibitor, single point]	
C=C(C)Cn1c(NCCOC)nc2c1c(=O)[nH]c(=O)n2C	inconclusive: 26.7 µM [inhibitor, single point]	
O=C(O)Cc1ccc(C(=O)c2ccccc2)s1		inactive: -7.5%
Cc1cc(=O)[nH]c(SCC(=O)Nc2ccc(Br)cc2)c1C#N	inconclusive: 21.2 µM [inhibitor, partial curve]	
Cc1c(C(=O)NCCc2ccccc2)oc2ccc(S(=O)(=O)N3CCC4(CC3)OCCO4)cc12		inconclusive: -11.3% [inhibitor]

Compound	Potency	max response, negative = inhibition
Cc1cc(CC(C)C)n(-c2nc3ccccc3c(=O)n2OCC(N)=O)n1	active: 21.2 µM	
CC1C(c2ccccc2)OCCN1C(=S)NC(=O)c1ccccc1 (stereo not drawn)	inconclusive: 26.7 µM [inhibitor, single point]	
C=CCN=c1scc(-c2ccc3c(c2)NC(=O)CO3)n1/N=C(\C)c1ccccn1	inconclusive: 37.7 µM [inhibitor, single point]	
Cc1[nH]c2ccccc2c1C(c1ccccn1)c1c(C)[nH]c2ccccc12	inconclusive: 21.2 µM [inhibitor, single point]	
Cn1c(NCc2ccccc2F)nc2cc(-c3cccc(C(F)(F)F)c3)sc2c1=O		inactive: -1.8%
O=C(O)Cn1c(=O)c2c3c(sc2n(Cc2ccc(Cl)cc2Cl)c1=O)CCCC3	inconclusive: 26.7 µM [inhibitor, single point]	
CC1CSC(N(C(=O)c2ccc(S(C)(=O)=O)cc2)c2ccc(Cl)cc2)=N1 (stereo not drawn)		inactive: -3.66%
COc1cc(C2CC(=O)Oc3c2c(=O)n(C)c2ccccc32)cc(OC)c1OC (stereo not drawn)	inconclusive: 26.7 µM [inhibitor, single point]	
Cc1ccc(C(=O)O)cc1N1C(=O)c2cccc3c([N+](=O)[O-])ccc(c23)C1=O	inconclusive: 21.2 µM [inhibitor, partial curve]	
COc1cc(/C=C2\C(=N)N3N=C(S(C)(=O)=O)SC3=NC2=O)ccc1OS(=O)(=O)c1ccc(C)cc1	active: 23.8 µM	
CCCOC(=O)c1c(N)sc(C(=O)OCC)c1C	inconclusive: 2.67 µM [inhibitor, full curve, poor fit]	
CCOC(=O)C1(C)CCCCCN1C(=O)c1ccc(SC(F)(F)F)cc1 (stereo not drawn)		inactive: -8.75%
O=C(CSc1nc(Nc2ccccc2)nc(N2CCOCC2)n1)NC1CCCCC1		inactive: -4.49%
Cc1cc(C)cc(NC(=O)c2ccc(S(=O)(=O)N(C)CC3CCCO3)cc2)c1 (stereo not drawn)		inactive: -1.45%
CCCCOc1ccc(N(CC(=O)NCC2CCCO2)C(=O)CCC(=O)Nc2cc(C)ccn2)cc1 (stereo not drawn)	inconclusive: 29.9 µM [inhibitor, partial curve]	
CCOC(OCC)c1cn(Cc2ccc(C(=O)c3ccccc3)cc2)nn1		inactive: 0.841%
O=C(NC1CC1)C(Cc1ccccc1)NS(=O)(=O)c1ccccc1F (stereo not drawn)	active: 23.8 µM	
CCOc1ccc(C(=O)NC2CCCCCCC2)cc1		inactive: 3.26%
CC(=O)NCC(=O)N(Cc1ccco1)C1(C(=O)NC2CCCCC2)CCCCC1	inconclusive: 29.9 µM [inhibitor, partial curve]	
Cc1ccc(Cn2cccc(NC(=O)c3ccco3)c2=O)cc1	inconclusive: 29.9 µM [inhibitor, single point]	
O=C(CCl)N1N=C(c2ccco2)CC1c1ccco1 (stereo not drawn)	inconclusive: 23.8 µM [inhibitor, partial curve]	
O=C1CCCC2=C1C(c1ccc(O)c(O)c1)c1c(ccc3ncccc13)N2 (stereo not drawn)	inconclusive: 37.7 µM [inhibitor, single point]	
CCc1nc(NCc2ccc3c(c2)OCO3)c2oc3ccccc3c2n1		inactive: 1.05%
CCn1nnnc1SCC(=O)N1CCc2ccccc21		inactive: -14.8%
Cc1ccc(Sc2ccc(/C=C3/C(=O)NN(c4ccccc4)C3=O)o2)cc1	active: 5.97 µM	

Compound	Potency	max response, negative = inhibition
CCNS(=O)(=O)c1ccc(-c2ccc(-n3cnnn3)cc2)cc1	inconclusive: 37.7 µM [inhibitor, single point]	
COc1cc2nc(NC(=O)c3ccc(Cl)cc3)sc(=O)c2cc1OC	inconclusive: 29.9 µM [inhibitor, single point]	
COc1ccccc1C(=O)NCC(=O)OCCCOC(=O)CNC(=O)c1ccccc1OC		inactive: -1.74%
S=C(NCc1ccc(Cl)c(Cl)c1)NCc1ccco1	inconclusive: 23.8 µM [inhibitor, partial curve]	
COc1cc(OC)c(Nc2cc(C)nc3nc(C)nn23)cc1Cl		inactive: -1.58%
COc1ccc(Br)cc1C(=O)NC(=S)Nc1cc(-c2nc3ccccc3[nH]2)ccc1C		inconclusive: -30.9% [inhibitor]
CCCc1cc(C(N)=O)c(NC(=O)c2cc(C)on2)s1	inconclusive: 14.1 µM [inhibitor, partial curve]	
COC(=O)c1ccc(N(C(=O)CNC(=O)c2ccco2)C(C(=O)NC2CCCC2)c2ccco2)cc1 (stereo not drawn)	active: 26.7 µM	
COc1ccccc1C(=O)NCCCCNC(=O)c1ccccc1OC		inactive: 6.96%
Cc1ccc(-c2n[nH]c(=O)c3ccccc23)cc1S(=O)(=O)Nc1ccccc1		inactive: -0.162%
COc1ccc(CNC(=O)C2CCC(CNC(=O)[C@@H]3Cc4ccccc4CN3)CC2)cc1 (stereo partly drawn)		inactive: -15.3%
NS(=O)(=O)c1ccc(NC(=O)c2c(Cl)cccc2Cl)cc1	active: 21.2 µM	
NC(=O)c1ccc(C(F)(F)F)n(Cc2ccc(F)c(F)c2)c1=O	inconclusive: 26.7 µM [inhibitor, single point]	
Cc1ccc(Nc2ncccc2C(=O)O)cc1C		inconclusive: -31.2% [inhibitor]
O=C(COc1ccc(NC(=O)c2cccs2)cc1)c1ccc(F)cc1		inactive: -9.84%
CNc1ccc(Br)cc(C(=O)/C=C/c2ccc(Cl)cc2Cl)c1=O	inconclusive: 37.7 µM [inhibitor, partial curve]	
CCC(=O)N(CCC(c1ccco1)C(C)C)Cc1ccccc1 (stereo not drawn)	inconclusive: 29.9 µM [inhibitor, partial curve]	
COc1cc(-c2ccc(Nc3ccccc3C(=O)O)c(OC)c2)ccc1Nc1ccccc1C(=O)O	active: 16.8 µM	
CCCC(=O)Nc1ccc(-c2nc3cc(C)ccc3o2)cc1	inconclusive: 29.9 µM [inhibitor, partial curve]	
COc1ccc(N2CCN(C(=O)C3CCN(C(=O)c4cccc(Cl)c4)CC3)CC2)cc1		inactive: -7.04%
COc1cc(OC)c2c(O)c3c(c(-c4c5c(c(O)c6c(OC)cc(OC)cc46)CO[C@@H](C)[C@H]5O)c2c1)[C@H](O)[C@H](C)OC3	active: 21.2 µM	
Fc1cccc(Cc2c(-c3ccco3)nc3ccc(Cl)cn23)c1	active: 23.8 µM	
O=C(COc1cccc2cccnc12)N/N=C/c1ccc(O)cc1	inconclusive: 29.9 µM [inhibitor, single point]	
